{"source": "paper PMC5562703", "binders": {"B1": {"name": "Atg4 fused to the activation domain (AD) of Gal4 (enzyme, UniProt P53867 1-494)", "chain": "MQRWLQLWKMDLVQKVSHGVFEGSSEEPAALMNHDYIVLGEVYPERDEESGAEQCEQDCRYRGEAVSDGFLSSLFGREISSYTKEFLLDVQSRVNFTYRTRFVPIARAPDGPSPLSLNLLVRTNPISTIEDYIANPDCFNTDIGWGCMIRTGQSLLGNALQILHLGRDFRVNGNESLERESKFVNWFNDTPEAPFSLHNFVSAGTELSDKRPGEWFGPAATARSIQSLIYGFPECGIDDCIVSVSSGDIYENEVEKVFAENPNSRILFLLGVKLGINAVNESYRESICGILSSTQSVGIAGGRPSSSLYFFGYQGNEFLHFDPHIPQPAVEDSFVESCHTSKFGKLQLSEMDPSMLIGILIKGEKDWQQWKLEVAESAIINVLAKRMDDFDVSCSMDDVESVSSNSMKKDASNNENLGVLEGDYVDIGAIFPHTTNTEDVDEYDCFQDIHCKKQKIVVMGNTHTVNANLTDYEVEGVLVEKETVGIHSPIDEKC"}, "B2": {"name": "Atg4^S307A fused to the activation domain (AD) of Gal4 (enzyme, UniProt P53867 1-494)", "chain": "B1 chain with S307A"}, "B3": {"name": "Protease-dead Atg4 (Atg4^PD, C147S) fused to the activation domain (AD) of Gal4 (enzyme, UniProt P53867 1-494)", "chain": "B1 chain with C147S"}, "B4": {"name": "Atg4^S307D fused to the activation domain (AD) of Gal4 (enzyme, UniProt P53867 1-494)", "chain": "B1 chain with S307D"}}, "note": "Changes are numbered by the printed parent chain. In names and notes the source's numbering stands. Results are given in words; binding and its absence hold for the method and conditions named. Some results given as binding are weak or reduced against the parent protein; the word gives no strength. Where a sequence is shown, tags or fusion partners need not be part of it."}
{"target": "T1, Atg8 fused to the DNA-binding domain (BD) of Gal4 (Saccharomyces cerevisiae) (UniProt P38182)", "T1 sequence": "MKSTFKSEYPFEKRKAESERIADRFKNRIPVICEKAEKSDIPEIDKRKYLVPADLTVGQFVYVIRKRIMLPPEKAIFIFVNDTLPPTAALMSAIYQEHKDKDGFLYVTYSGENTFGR", "assay": "two-hybrid; Gal4 AD-Atg4 variants (pGAD-C1) and Gal4 BD-Atg8 (pGBDU-C1) in strain PJ69-4A; growth on SMD lacking leucine, uracil and adenine (test plate)"}
{"binder": "B1", "binding": "binds"}
{"binder": "B2", "binding": "binds"}
{"binder": "B3", "binding": "binds"}
{"binder": "B4", "binding": "no binding"}
